# Laboratory results: PubChem BioAssay AID1224830 (NIAID, 2016)
# Purpose: 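Regulators of TLR4 signalling towards TNF-alpha in macrophage-like cells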 (primary screen)
# Cells: human THP-1 monocytic leukaemia cells, TNF dual-luciferase reporter clone, PMA-differentiated to macrophage-like cells
# Reagent: siRNA pool against human genes, 50 nM
# Duration: LPS for 4 h, given about 3 days after siRNA transfection
# Challenge: bacterial LPS (TLR4 ligand), 10 ng/ml
# Detection: 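Ratio of firefly to renilla light, scaled to the plate median and expressed as a robust z-score per replicate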
# Scale: TNF reporter robust z-score: higher = stronger TNF reporter response to LPS
# Rule for the call: 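a well is active when its z-score exceeds 2.8 or falls below -1.5; control wells carry no call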
# This is one part, drawn at random, of about 18,000 reagents tested. About 2,900 of all reagents (16%) were called active. 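Calls are made per well; low scores hint the gene aids the LPS response, high scores that it dampens it.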 Repeated entries: four replicate wells of each siRNA pool.
gene,TNF reporter robust z-score,activity call
MGST2,-0.68,inactive
MGST2,-0.31,inactive
MGST2,-0.01,inactive
MGST2,4.2,active
RFXAP,-1.21,inactive
RFXAP,-0.34,inactive
RFXAP,-0.53,inactive
RFXAP,-0.88,inactive
ECHDC1,0.01,inactive
ECHDC1,0.14,inactive
ECHDC1,-0.7,inactive
NKD1,1.21,inactive
NKD1,1.16,inactive
NKD1,0.21,inactive
NKD1,-0.19,inactive
CIMAP1B,-0.83,inactive
CIMAP1B,-0.49,inactive
CIMAP1B,-0.86,inactive
CIMAP1B,-0.29,inactive
CST2,-0.12,inactive
CST2,-0.24,inactive
CST2,-0.79,inactive
CST2,-0.81,inactive
NFKBIZ,-1.29,inactive
NFKBIZ,-0.63,inactive
NFKBIZ,-0.13,inactive
NFKBIZ,-0.27,inactive
SPIC,-0.78,inactive
SPIC,3.21,active
SPIC,1.42,inactive
SPIC,1.18,inactive
DEFB107B,0.08,inactive
DEFB107B,0.01,inactive
DEFB107B,0.38,inactive
DEFB107B,0.95,inactive
OSCAR,0.29,inactive
OSCAR,0.35,inactive
OSCAR,0.73,inactive
OSCAR,0.17,inactive
ADRB1,2.06,inactive
ADRB1,2.77,inactive
ADRB1,1.85,inactive
ADRB1,1.5,inactive
ALDH1A3,0.11,inactive
ALDH1A3,0.13,inactive
ALDH1A3,0.45,inactive
ALDH1A3,0.4,inactive
ZNF180,3.84,active
ZNF180,2.81,active
ZNF180,3.4,active
ZNF180,0.85,inactive
PSENEN,-0.37,inactive
PSENEN,1.49,inactive
PSENEN,0,inactive
PSENEN,0.58,inactive
UBE2QL1,1.01,inactive
UBE2QL1,3.26,active
UBE2QL1,-0.09,inactive
UBE2QL1,2.46,inactive
CCR4,0.09,inactive
CCR4,0.74,inactive
CCR4,0.83,inactive
CCR4,-0.76,inactive
IL12RB1,0.38,inactive
IL12RB1,-0.3,inactive
IL12RB1,0.09,inactive
IL12RB1,0.36,inactive
THUMPD3,-0.12,inactive
THUMPD3,-0.14,inactive
THUMPD3,-0.19,inactive
THUMPD3,0.32,inactive
KCNN3,-0.31,inactive
KCNN3,-0.48,inactive
KCNN3,0.25,inactive
CGN,-0.37,inactive
CGN,-0.25,inactive
CGN,-0.9,inactive
CGN,-0.33,inactive
FAM76A,-0.49,inactive
FAM76A,-0.74,inactive
FAM76A,-0.42,inactive
FAM76A,-0.15,inactive
SERTAD2,-0.28,inactive
SERTAD2,-0.14,inactive
SERTAD2,-0.02,inactive
SERTAD2,0.28,inactive
ASB4,-0.59,inactive
ASB4,-1.09,inactive
ASB4,-0.16,inactive
ASB4,-0.54,inactive
LENEP,1.2,inactive
LENEP,1.26,inactive
LENEP,0.47,inactive
LENEP,0.85,inactive
SEMA5A,-0.29,inactive
SEMA5A,-1.1,inactive
SEMA5A,-0.77,inactive
SEMA5A,-1,inactive
ZNF222,0.95,inactive
ZNF222,1.05,inactive
ZNF222,1.24,inactive
ZNF222,0.45,inactive
ODF2,-1.47,inactive
ODF2,-0.94,inactive
ODF2,-1.17,inactive
ODF2,-0.51,inactive
GIGYF1,0.89,inactive
GIGYF1,0.75,inactive
GIGYF1,0.9,inactive
GIGYF1,1.26,inactive

Reformatted: results already given.
{"gene":"PSENEN","TNF reporter robust z-score":-0.37,"activity call":"inactive"}
{"gene":"PSENEN","TNF reporter robust z-score":1.49,"activity call":"inactive"}
{"gene":"PSENEN","TNF reporter robust z-score":0,"activity call":"inactive"}
{"gene":"PSENEN","TNF reporter robust z-score":0.58,"activity call":"inactive"}
{"gene":"UBE2QL1","TNF reporter robust z-score":1.01,"activity call":"inactive"}
{"gene":"UBE2QL1","TNF reporter robust z-score":3.26,"activity call":"active"}
{"gene":"UBE2QL1","TNF reporter robust z-score":-0.09,"activity call":"inactive"}
{"gene":"UBE2QL1","TNF reporter robust z-score":2.46,"activity call":"inactive"}
